This is one part of the list. Shown are side measurements of this screen, not its main read-out; they come without a call. The list favours compounds with an active or inconclusive main result. Words in brackets tell the shape of the fitted curve; partial curves, single points and poor fits give uncertain potencies.
Experiment: qHTS Assay for Lipid Storage Modulators in Drosophila S3 Cells;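 on cell number change: cells counted by Cell Tracker Red CMTPX staining in the red channel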
Settings: BODIPY lipid droplet fluorescence, 18-24 h; for cell number change: measured here: cell count max response, cells fed with added oleic acid
How it was run: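 Drosophila S3 cells got compounds at several concentrations plus oleic acid (400 uM solution). Laser-scanning cytometry with 488 nm excitation read lipid droplets at 500-530 nm and cells at 575-640 nm. Percent activity was relative to 20 uM Triacsin C.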

[1] = measured here: lipid fluorescence (Fed channel) AC50, cells fed with added oleic acid
[2] = measured here: cell number channel AC50, cells fed with added oleic acid

## CCOc1ccc(N(CC(=O)NC2CCCCC2)C(=O)CNC(=O)c2cccs2)cc1
  cell number change: 5.04%
[1]
  AC50: 0.116 µM [falling, single point]

## CCCCC1OC23CCCCC2C(C#N)(C(=N)O3)C1(C#N)C#N (stereo not drawn)
  cell number change: -27.6%
[2]
  AC50: 0.731 µM [falling, full curve]
[1]
  AC50: 0.0651 µM [falling, full curve, poor fit]

## COc1cc(C(=O)Nc2ccc(C)cn2)c([N+](=O)[O-])cc1OC
  cell number change: 8.25%
[2]
  AC50: 6.51 µM [rising, single point]
[1]
  AC50: 6.51 µM [rising, single point]

## Cc1ccccc1C(=O)Nc1ccc(Cl)cn1
  cell number change: -11.9%

## O=C(COc1ccccc1Cl)Nc1ccc(N2CCN(C(=O)c3ccccc3)CC2)cc1
  cell number change: -31.4%
[2]
  AC50: 29.1 µM [falling, single point]
[1]
  AC50: 0.461 µM [rising, full curve, poor fit]

## Cc1ccc(-n2nnnc2SCC(=O)N2CCc3ccccc3C2)c(C)c1
[2]
  AC50: 6.51 µM [rising, single point]

## COC(=O)c1ccc(COC(=O)CNS(=O)(=O)c2ccccc2)cc1
  cell number change: 12.1%
[1]
  AC50: 11.6 µM [rising, partial curve]

## O=C(NCC(c1ccco1)N1CCCC1)c1cccc(NS(=O)(=O)c2ccccc2)c1 (stereo not drawn)
  cell number change: 23%
[1]
  AC50: 16.4 µM [rising, partial curve]

## CCc1ccc(NC2=NC(C(=O)NC3CCCCC3)CC(=O)N2)cc1 (stereo not drawn)
  cell number change: -6.55%
[1]
  AC50: 1.84 µM [falling, full curve]

## O=C(CN1CCN(S(=O)(=O)c2ccc(F)cc2)CC1)Nc1ccccc1C(=O)NC1CC1
  cell number change: 25%
[1]
  AC50: 0.13 µM [rising, full curve, poor fit]

## CCc1n[nH]c(=S)n1N=C1CCC(C)CC1 (stereo not drawn)
  cell number change: -10.2%

## Cc1ccc(C(=O)COC(=O)c2cn3ccccc3n2)cc1
  cell number change: 35.1%
[2]
  AC50: 25.9 µM [rising, single point]

## O=C(COC(=O)c1ccc(S(=O)(=O)N2CCCC2)cc1)NCc1cccs1
  cell number change: 31.4%
[2]
  AC50: 32.6 µM [rising, single point]

## CCOC(=O)Nc1sc(NS(=O)(=O)c2ccc(C)cc2)nc1C
  cell number change: 36.8%
[2]
  AC50: 29.1 µM [rising, single point]

## Cn1nc(C(F)(F)F)c(CO)c1Sc1ccc(F)cc1
  cell number change: 7.69%
[2]
  AC50: 0.116 µM [falling, full curve, poor fit]

## Cn1cc(CN2CCC(C(O)c3cccs3)CC2)c(-c2cccc(Cl)c2)n1 (stereo not drawn)
  cell number change: 3.99%
[1]
  AC50: 11.6 µM [rising, single point]

## CCN1C(=O)/C(=C2/C(=O)N3c4c(cc(OC(C)=O)cc42)C(C)=CC3(C)C)SC1=S
  cell number change: -20.6%
[2]
  AC50: 0.731 µM [falling, full curve, poor fit]

## CCc1ccc(NC(=O)c2cc3c(C)nc4ccccc4c3o2)cc1
  cell number change: 6.37%
[1]
  AC50: 4.61 µM [rising, single point]

## O=C(Cc1cccs1)Nc1cc(SCCO)cc([N+](=O)[O-])c1
  cell number change: 31.6%
[2]
  AC50: 18.4 µM [rising, single point]
[1]
  AC50: 14.6 µM [rising, partial curve]

## CCOC(=O)c1c(C)[nH]c(C(=O)COC(=O)c2cn(CC)c3nc(C)ccc3c2=O)c1C
  cell number change: 9.46%

## CCCCNc1ccc(S(N)(=O)=O)cc1[N+](=O)[O-]
[1]
  AC50: 16.4 µM [rising, single point]

## Cc1ccc(C)c(OCCC(=O)Nc2ccc3c(c2)OCO3)c1
  cell number change: -36%
[2]
  AC50: 1.16 µM [falling, full curve, poor fit]

## Cn1c(COc2nnc(-c3ccc(Cl)cc3)c3ccccc23)nc2ccccc21
  cell number change: 8.93%

## COc1ccc(CCn2c(=N)c(C(=O)NCC3CCCO3)cc3c(=O)n4cccc(C)c4nc32)cc1 (stereo not drawn)
  cell number change: -3.98%
[1]
  AC50: 1.16 µM [falling, full curve]

## O=C(Cc1cccs1)N1CCN(C(=O)C2CCCO2)CC1 (stereo not drawn)
  cell number change: -104%

## O=C(NN1C(=O)C2C(c3ccccc3)C=CC(c3ccccc3)C2C1=O)c1ccncc1 (stereo not drawn)
  cell number change: 15.1%

## CC1=C(Nc2ccc(C(=O)O)cc2)C(=O)c2ccccc2C1=O
  cell number change: 69.7%
[2]
  AC50: 29.1 µM [rising, single point]

## O=C(O)c1ccccc1-c1ccccc1C(=O)NCc1ccccc1F
  cell number change: 8.8%
[1]
  AC50: 20.6 µM [falling, single point]

## O=C(NCc1ccco1)c1ccc2c(c1)C(=O)N(Cc1ccccc1)C2=O
[2]
  AC50: 2.59 µM [rising, partial curve]

## Cc1ccc(CNC(=O)COC(=O)Cn2nc(C)c([N+](=O)[O-])c2C)cc1
  cell number change: -8.62%
[2]
  AC50: 0.082 µM [falling, full curve, poor fit]

## COc1ccc(OC)c(NC(=O)CCN2CCC(C)CC2)c1
  cell number change: -185%
[2]
  AC50: 29.1 µM [falling, partial curve]
[1]
  AC50: 20.6 µM [falling, partial curve]

## Cc1cc(C)n(CC(O)COc2ccc(C(C)C)c(C)c2)n1 (stereo not drawn)
  cell number change: 21.4%

## Cc1ccc(-c2nnc(C)c(N3CCCC3)n2)cc1
  cell number change: 69.5%
[1]
  AC50: 3.66 µM [rising, full curve]

## NC(=O)c1ccc2c(=O)n3c(-c4cc(Cl)c(N)c(Cl)c4)csc3nc2c1
  cell number change: -10.1%
[1]
  AC50: 0.291 µM [rising, full curve, poor fit]

## Cc1ccccc1C(=O)NNC(=S)NC(=O)COc1ccccc1
  cell number change: 13%
[2]
  AC50: 0.731 µM [falling, full curve, poor fit]
[1]
  AC50: 0.651 µM [falling, single point]

## N#Cc1c(NC(=O)CSc2ncc(-c3ccccc3)n2CC2CCCO2)sc2c1CCCC2 (stereo not drawn)
  cell number change: 43.8%
[2]
  AC50: 32.6 µM [rising, single point]

## O=C(NCc1ccc(OC(F)(F)F)cc1)C1CC2Cn3c(nc4ccccc43)C2N1c1ccccc1 (stereo not drawn)
  cell number change: 9.28%

## CCc1cc2c(SCC(=O)NCC3CCCO3)ncnc2s1 (stereo not drawn)
  cell number change: -26.9%
[1]
  AC50: 6.51 µM [falling, partial curve, poor fit]

## CC1CCN(S(=O)(=O)c2ccc(S(=O)(=O)NCc3ccccc3)cc2)CC1
  cell number change: -17.8%
[1]
  AC50: 0.184 µM [falling, partial curve, poor fit]

Source: PubChem BioAssay AID2685 (National Center for Advancing Translational Sciences (NCATS), 2010)
